These are literature values, as cited in patent US11612574B2 (priority 2020, dated 2023).

This series has as its system SARS-CoV-2. To be noted: cited from earlier work.

In the case of `CN1CCC[C@@H]1CCO[C@](C)(c1ccccc1)c1ccc(Cl)cc1` [clemastine], the “inhibition of SARS-CoV-2 in vitro” value was “inhibit”.
